Where a name gives a salt, the structure may show the parent alone. ± gives the standard deviation of the averaged measurements. The list shows a part of the results. Values are raw readings; no control value is given beside them.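 One yeast strain harboring four plasmids, each bearing a fluorescent protein plus an amino-acid or uracil synthesis gene, founds the community. Random loss of plasmids produces mixed prototroph and auxotroph subpopulations. Cells were fixed, then counted with automated confocal fluorescence imaging, with DMSO-treated wells as vehicle reference.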 Bridge positions count the residues as written; N and C are the ends. Square brackets hold non-standard residues; d marks the D form. Peptide text beside a SMILES is read from it. * marks the point of attachment. Heptanoyl(6-Me) = CC(C)CCCCC(=O)*; Dab = NCC[C@H](N)C(=O)O
test system: Saccharomyces cerevisiae BY4741 SeMeCo community; test: imaged cell count per well (cells); higher = more cells; conditions: 10 µM; 24 h; SM minimal medium
Procedure: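 Same SeMeCo high-content imaging drug screen: Selleck FDA-approved drugs at 10 µM, 24 h in SM medium, 384-well plates, 3 replicates.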

| SMILES | imaged cell count per well |
| --- | --- |
| CC(=O)OCC1=C(C(=O)O)N2C(=O)[C@@H](NC(=O)CSC(=NC(C)C)NC(C)C)[C@H]2SC1 [Cefathiamidine] | 31100 ± 2700 |
| COc1ccc(CNc2nc(N3CCC[C@H]3CO)ncc2C(=O)NCc2ncccn2)cc1Cl [Avanafil] | 25200 ± 3900 |
| Cc1nccn1CC1CCc2c(c3ccccc3n2C)C1=O (stereo unspecified) [Ondansetron HCl] | 25700 ± 1500 |
| O=c1[nH]c(=O)n([C@H]2C[C@H](O)[C@@H](CO)O2)cc1I [Idoxuridine] | 26700 ± 6400 |
| CCCN(CCC)CCc1cccc2c1CC(=O)N2 [Ropinirole HCl] | 25100 ± 6300 |
| OCCOCCN1CCN(C2=Nc3ccccc3Sc3ccccc32)CC1 [Quetiapine Fumarate] | 22800 ± 2600 |
| COC(=O)C1=C(C)NC(C)=C(C(=O)OC2CCCN(Cc3ccccc3)C2)C1c1cccc([N+](=O)[O-])c1 (stereo unspecified) [Benidipine HCl] | 21600 ± 4800 |
| Nc1nc(=O)[nH]cc1F [Flucytosine] | 965 ± 250 |
| CC1(C)S[C@@H]2[C@H](NC(=O)C(c3ccccc3)S(=O)(=O)O)C(=O)N2[C@H]1C(=O)O (stereo partly specified) [Sulbenicillin Sodium] | 15500 ± 6600 |
| Clc1ccc(CCC(Cn2ccnc2)Sc2c(Cl)cccc2Cl)cc1 (stereo unspecified) [Butoconazole] | 3100 ± 630 |
| C[C@H]1NCc2cc(-c3ccc4c(=O)c(C(=O)O)cn(C5CC5)c4c3OC(F)F)ccc21 [Garenoxacin] | 24400 ± 2100 |
| Nc1ccc(S(=O)(=O)Nc2ccccn2)cc1 [Sulfapyridine] | 29000 ± 2300 |
| COc1ccc2cc(C(=O)O)ccc2c1 [6-Methoxy-2-naphthoic acid] | 11500 ± 890 |
| CN(C)CCC=C1c2ccccc2C(C)(C)c2ccccc21 [Melitracen hydrochloride] | 31700 ± 8300 |
| CC(C)CCCCC(=O)N[C@@H](CCN)C(=O)N[C@H](C(=O)N[C@@H](CCN)C(=O)N[C@H]1CCNC(=O)[C@H]([C@@H](C)O)NC(=O)[C@H](CCN)NC(=O)[C@H](CCN)NC(=O)[C@H](CC(C)C)NC(=O)[C@@H](Cc2ccccc2)NC(=O)[C@H](CCN)NC1=O)[C@@H](C)O [Polymyxin B sulphate] ({Heptanoyl(6-Me)}-[Dab]T[Dab][Dab][Dab][dF]L[Dab][Dab]T; lactam 4-C) | 32300 ± 6500 |
| Cc1ccccc1OCC(O)CO (stereo unspecified) [Mephenesin] | 26500 ± 3400 |
| CO[C@@]1(NC(=O)Cc2cccs2)C(=O)N2C(C(=O)O)=C(COC(N)=O)CS[C@@H]21 [Cefoxitin sodium] | 24600 ± 9100 |
| O=C1CN2Cc3c(ccc(Cl)c3Cl)N=C2N1 [Anagrelide HCl] | 21000 ± 11000 |
| CC1=C(C(=O)OC(C)C)C(c2cccc([N+](=O)[O-])c2)C(C(=O)OC2CN(C(c3ccccc3)c3ccccc3)C2)=C(N)N1 (stereo unspecified) [Azelnidipine] | 26500 ± 9200 |
| CO/N=C(\C(=O)N[C@@H]1C(=O)N2C(C(=O)[O-])=C(C[N+]3(C)CCCC3)CS[C@H]12)c1csc(N)n1 [Cefepime Dihydrochloride Monohydrate] | 25500 ± 7200 |
| CCC(C)(C)C(=O)O[C@H]1C[C@@H](C)C=C2C=C[C@H](C)[C@H](CC[C@@H]3C[C@@H](O)CC(=O)O3)[C@H]21 [Simvastatin] | 11300 ± 6400 |
| CCOC(=O)C1=C[C@@H](OC(CC)CC)[C@H](NC(C)=O)[C@@H](N)C1 [Oseltamivir Phosphate] | 24200 ± 2700 |
| COC(=O)Nc1nc2cc(C(=O)c3ccc(F)cc3)ccc2[nH]1 [Flubendazole] | 26500 ± 610 |
| CCN(CC)CCNC(=O)c1cc(Cl)c(N)cc1OC [Metoclopramide HCl] | 23200 ± 13000 |
| CN1CCCN=C1/C=C/c1cccc(O)c1 [Oxantel Pamoate] | 25100 ± 6300 |
| CCc1nn(CCCN2CCN(c3cccc(Cl)c3)CC2)c(=O)n1CCOc1ccccc1 [Nefazodone hydrochloride] | 20200 ± 12000 |

Some of these compounds in order of length of the SMILES, rising.

| SMILES | imaged cell count per well |
| --- | --- |
| O=C1CN2Cc3c(ccc(Cl)c3Cl)N=C2N1 [Anagrelide HCl] | 21000 ± 11000 |
| CN(C)CCC=C1c2ccccc2C(C)(C)c2ccccc21 [Melitracen hydrochloride] | 31700 ± 8300 |
| CC(=O)OCC1=C(C(=O)O)N2C(=O)[C@@H](NC(=O)CSC(=NC(C)C)NC(C)C)[C@H]2SC1 [Cefathiamidine] | 31100 ± 2700 |

Source: the supplement of paper PMC8975748
